Entries after “also recorded” stand apart in the source; their conditions may differ. For at least one compound, name, drawing or mass did not settle the structure.
Experiments:
[1] = tested on: C. neoformans; assay: Mouse model of C. neoformans meningitis/meningoencephalitis following intravenous inoculation; format: in vivo; conditions: strain H99, BALB/c mice, 100 μg/mouse i.v. 15 min before and 6 hrs after, 24 hours, vs vehicle control (0.1% ethanol)
Experimental: The mouse model of Cryptococcal meningitis/meningoencephalitis following intravenous inoculation was used to determine the hematogenous dissemination of C. neoformans to the brain as described previously (7, 8). C. neoformans strains grown on 1% yeast extracts, 2% peptone and 2% dextrose (YPD) agar were suspended in phosphate-buffered saline (PBS, pH 7.4) and counted with a hemocytometer to determine the yeast cell number. This suspension was also cultured on YPD agar plates, and colonies (CFUs) counted after 3 days of incubation at 30° C. as previously described (11). The inoculum size was confirmed by CFUs.
Briefly, female BALB/c mice received 10^5 yeast cells via the tail vein. 24 hours later, the blood specimens were obtained for determination of CFUs, and the animals perfused with sterile Ringer's solution until the perfused solution became colorless. The brains were removed, weighed, homogenized and cultured on YPD agar for determination of CFUs.
cPLA2α. We examined the role of host cPLA2α in C. neoforman strain B-3501A penetration into the brain by studying cPLA2α−/− mice as compared to their strain-matched wild type mice. Each animal received 10^5 yeast cells via the tail vein. 24 hours later, the blood specimens were obtained for determination of CFUs, and the animals perfused with sterile Ringer's solution until the perfused solution became colorless. […]

[2] = tested on: E. coli K1 strain RS218; assay: Infant rat model of experimental hematogenous E. coli meningitis; format: in vivo; conditions: 5-day-old rats
Experimental: Experimental hematogenous E. coli meningitis was induced in 5-day old rats as previously described (9, 10, 14, 28). Briefly, outbred, specific-pathogen-free pregnant Sprague-Dawley rats with timed conception were purchased from Charles River Breeding laboratory (Wilmington, Mass.). The rats delivered in our vivarium 5 to 7 days after arrival. At 5 days of age, all members of each litter were randomly divided into two groups, to receive intraperitoneally montelukast (50 μg/10 gm of weight in 50 μl PBS) or vehicle control (3.3% DMSO in 50 μl PBS). One hour later, each animal received 1×10^7 CFU of E. coli K1 strain RS218 via intracardiac injection. At one hour after bacterial injection, blood and CSF specimens were obtained as described previously (9, 10, 14, 28) for quantitative cultures. The development of E. coli meningitis (defined as positive CSF cultures) was compared between the two groups of animals.
We also examined one of the CysLT1 antagonists for its effect on E. coli K1 penetration into the brain in our well-characterized infant rat model of experimental hematogenous E. coli meningitis (9, 10, 14, 28). At 5 days of age, all members of each litter were randomly divided to receive intraperitoneally montelukast or vehicle control. […] At one hour after bacterial inoculation, blood and cerebrospinal fluid (CSF) specimens were obtained for quantitative cultures.

CC(C)(O)c1ccccc1CC[C@@H](SCC1(CC(=O)O)CC1)c1cccc(/C=C/c2ccc3ccc(Cl)cc3n2)c1 [montelukast]
yeast counts recovered from the brains (CFU/gm) [1]: significantly decreased the yeast counts recovered from the brains of wild type mice; also recorded: significantly (p<0.05) less
yeast counts recovered from the brains (CFU/gm) ([1]; listed as Montelukast): significantly (p<0.05) decreased C. neoformans strain H99 penetration into the brain
development of E. coli meningitis (positive CSF cultures) compared to vehicle control [2]: significantly less
